Results published in publication PMC10724427.
No constants are given. Whether binding was seen depends on the method and setting. In cells and extracts the contact can be indirect. Some entries that bind do so weakly or less than the wild type.

The chains behind the UniProt entries cited, without tags or fusion partners.
UniProt Q14814: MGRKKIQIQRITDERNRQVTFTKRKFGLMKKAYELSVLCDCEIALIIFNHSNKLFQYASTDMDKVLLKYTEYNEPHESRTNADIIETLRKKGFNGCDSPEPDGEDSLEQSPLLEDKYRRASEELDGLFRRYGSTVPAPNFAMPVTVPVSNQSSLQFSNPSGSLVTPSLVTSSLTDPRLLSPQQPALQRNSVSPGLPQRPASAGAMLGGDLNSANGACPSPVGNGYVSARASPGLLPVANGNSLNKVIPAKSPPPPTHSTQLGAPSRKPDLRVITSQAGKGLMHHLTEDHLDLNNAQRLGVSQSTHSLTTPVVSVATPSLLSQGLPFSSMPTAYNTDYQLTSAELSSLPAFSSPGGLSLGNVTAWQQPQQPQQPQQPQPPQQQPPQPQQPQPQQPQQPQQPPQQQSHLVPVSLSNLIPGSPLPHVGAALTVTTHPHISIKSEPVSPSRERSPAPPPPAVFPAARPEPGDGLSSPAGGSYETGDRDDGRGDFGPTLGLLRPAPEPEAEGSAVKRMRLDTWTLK
UniProt Q13418: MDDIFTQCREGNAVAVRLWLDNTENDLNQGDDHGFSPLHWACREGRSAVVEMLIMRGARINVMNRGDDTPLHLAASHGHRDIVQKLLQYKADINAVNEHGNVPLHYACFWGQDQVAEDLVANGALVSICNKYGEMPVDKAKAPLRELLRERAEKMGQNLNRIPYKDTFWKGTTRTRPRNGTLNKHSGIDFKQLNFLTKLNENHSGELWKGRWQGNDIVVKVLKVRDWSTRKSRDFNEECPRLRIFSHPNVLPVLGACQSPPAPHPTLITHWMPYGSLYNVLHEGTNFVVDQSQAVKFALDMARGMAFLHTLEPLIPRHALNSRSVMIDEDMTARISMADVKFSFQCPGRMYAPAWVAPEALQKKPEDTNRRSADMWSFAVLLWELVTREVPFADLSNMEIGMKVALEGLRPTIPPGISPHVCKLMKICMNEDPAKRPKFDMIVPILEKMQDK
UniProt Q00987: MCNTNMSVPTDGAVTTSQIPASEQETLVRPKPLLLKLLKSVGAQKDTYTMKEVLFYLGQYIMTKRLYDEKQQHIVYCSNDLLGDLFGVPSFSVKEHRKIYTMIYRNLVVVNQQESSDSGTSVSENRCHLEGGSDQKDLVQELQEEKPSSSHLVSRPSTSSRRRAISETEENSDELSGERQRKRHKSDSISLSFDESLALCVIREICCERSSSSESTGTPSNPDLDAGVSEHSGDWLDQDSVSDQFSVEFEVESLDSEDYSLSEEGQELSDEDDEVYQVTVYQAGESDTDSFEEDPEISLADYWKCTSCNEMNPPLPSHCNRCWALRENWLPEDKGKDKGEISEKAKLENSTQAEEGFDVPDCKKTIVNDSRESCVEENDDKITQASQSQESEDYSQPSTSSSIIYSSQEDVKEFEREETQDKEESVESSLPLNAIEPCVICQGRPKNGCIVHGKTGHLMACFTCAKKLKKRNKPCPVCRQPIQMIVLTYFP

B1: β‐Parvin (protein, UniProt Q9HBI1 1-364)
chain: MSSAPRSPTPRPRRMKKDESFLGKLGGTLARKRRAREVSDLQEEGKNAINSPMSPALVDVHPEDTQLEENEERTMIDPTSKEDPKFKELVKVLLDWINDVLVEERIIVKQLEEDLYDGQVLQKLLEKLAGCKLNVAEVTQSEIGQKQKLQTVLEAVHDLLRPRGWALRWSVDSIHGKNLVAILHLLVSLAMHFRAPIRLPEHVTVQVVVVRKREGLLHSSHISEELTTTTEMMMGRFERDAFDTLFDHAPDKLSVVKKSLITFVNKHLNKLNLEVTELETQFADGVYLVLLMGLLEDYFVPLHHFYLTPESFDQKVHNVSFAFELMLDGGLKKPKARPEDVVNLDLKSTLRVLYNLFTKYKNVE

How the values were obtained:
[1] = molecular target: myocyte enhancer factor 2D (human (endogenous in Hep3B)) (UniProt Q14814); test: co-IP; endogenous proteins in Hep3B lysates; cells untreated or treated with FN or NETs-DNA, with or without the FAK inhibitor PF562271 (10 µM); USP14-depleted cells as control; Protein A/G magnetic beads, 4 °C overnight; immunoblot
[2] = molecular target: integrin‐linked kinase (human (endogenous in Hep3B)) (UniProt Q13418); test: co-IP; anti-ILK immunoprecipitates from lysates of Hep3B cells treated with or without NETs; endogenous proteins; IgG isotype control; immunoblot

| binding [1] | binding [2] | Molecule |
| --- | --- | --- |
| binds |  | MDM2 (from UniProt Q00987 1-491) |
|  | binds | B1 |
